Where a chain is given by its changes, count along the chain named. Numbers in names are those of the source. These are yes or no findings as the source states them, for the method shown. For some of these results: In cells and extracts the contact can be indirect. Some binding calls cover weakened binding; strength is not graded here. Tags and fused reporters may be left off the sequences shown.
B1: STN1 S96A (co-expressed in Expi293F) (protein, UniProt Q9H668 1-368)
chain: MQPGSSRCEEETPSLLWGLDPVFLAFAKLYIRDILDMKESRQVPGVFLYNGHPIKQVDVLGTVIGVRERDAFYSYGVDDSTGVINCICWKKLNTEAVSAAPSAARELSLTSQLKKLQETIEQKTKIEIGDTIRVRGSIRTYREEREIHATTYYKVDDPVWNIQIARMLELPTIYRKVYDQPFHSSALEKEEALSNPGALDLPSLTSLLSEKAKEFLMENRVQSFYQQELEMVESLLSLANQPVIHSASSDQVNFKKDTTSKAIHSIFKNAIQLLQEKGLVFQKDDGFDNLYYVTREDKDLHRKIHRIIQQDCQKPNHMEKGCHFLHILACARLSIRPGLSEAVLQQVLELLEDQSDIVSTMEHYYTAF
B2: STN1 S96D (co-expressed in Expi293F) (protein, UniProt Q9H668 1-368)
chain: B1 chain with A96D
B3: STN1 wild type (co-expressed in Expi293F) (protein, UniProt Q9H668 1-368)
chain: B1 chain with A96S
B4: Flag-CTC1 (co-expressed in Expi293F) (protein, UniProt Q2NKJ3 1-1217)
chain: MAAGRAQVPSSEQAWLEDAQVFIQKTLCPAVKEPNVQLTPLVIDCVKTVWLSQGRNQGSTLPLSYSFVSVQDLKTHQRLPCCSHLSWSSSAYQAWAQEAGPNGNPLPREQLLLLGTLTDLSADLEQECRNGSLYVRDNTGVLSCELIDLDLSWLGHLFLFPRWSYLPPARWNSSGEGHLELWDAPVPVFPLTISPGPVTPIPVLYPESASCLLRLRNKLRGVQRNLAGSLVRLSALVKSKQKAYFILSLGRSHPAVTHVSIIVQVPAQLVWHRALRPGTAYVLTELRVSKIRGQRQHVWMTSQSSRLLLLKPECVQELELELEGPLLEADPKPLPMPSNSEDKKDPESLVRYSRLLSYSGAVTGVLNEPAGLYELDGQLGLCLAYQQFRGLRRVMRPGVCLQLQDVHLLQSVGGGTRRPVLAPCLRGAVLLQSFSRQKPGAHSSRQAYGASLYEQLVWERQLGLPLYLWATKALEELACKLCPHVLRHHQFLQHSSPGSPSLGLQLLAPTLDLLAPPGSPVRNAHNEILEEPHHCPLQKYTRLQTPSSFPTLATLKEEGQRKAWASFDPKALLPLPEASYLPSCQLNRRLAWSWLCLLPSAFCPAQVLLGVLVASSHKGCLQLRDQSGSLPCLLLAKHSQPLSDPRLIGCLVRAERFQLIVERDVRSSFPSWKELSMPGFIQKQQARVYVQFFLADALILPVPRPCLHSATPSTPQTDPTGPEGPHLGQSRLFLLCHKEALMKRNFCVPPGASPEVPKPALSFYVLGSWLGGTQRKEGTGWGLPEPQGNDDNDQKVHLIFFGSSVRWFEFLHPGQVYRLIAPGPATPMLFEKDGSSCISRRPLELAGCASCLTVQDNWTLELESSQDIQDVLDANKSLPESSLTDLLSDNFTDSLVSFSAEILSRTLCEPLVASLWMKLGNTGAMRRCVKLTVALETAECEFPPHLDVYIEDPHLPPSLGLLPGARVHFSQLEKRVSRSHNVYCCFRSSTYVQVLSFPPETTISIPLPHIYLAELLQGGQSPFQATASCHIVSVFSLQLFWVCAYCTSICRQGKCTRLGSTCPTQTAISQAIIRLLVEDGTAEAVVTCRNHHVAAALGLCPREWASLLDFVQVPGRVVLQFAGPGAQLESSARVDEPMTMFLWTLCTSPSVLRPIVLSFELERKPSKIVPLEPPRLQRFQCGELPFLTHVNPRLRLSCLSIRESEYSSSLGILASSC
B5: Flag-CTC1 (protein, UniProt Q2NKJ3 1-1217)
chain: B4 chain
B6: HA-TEN1 (protein, UniProt Q86WV5 1-123)
chain: MMLPKPGTYYLPWEVSAGQVPDGSTLRTFGRLCLYDMIQSRVTLMAQHGSDQHQVLVCTKLVEPFHAQVGSLYIVLGELQHQQDRGSVVKARVLTCVEGMNLPLLEQAIREQRLYKQERGGSQ

The chains behind the UniProt entries cited, without tags or fusion partners.
UniProt Q06609: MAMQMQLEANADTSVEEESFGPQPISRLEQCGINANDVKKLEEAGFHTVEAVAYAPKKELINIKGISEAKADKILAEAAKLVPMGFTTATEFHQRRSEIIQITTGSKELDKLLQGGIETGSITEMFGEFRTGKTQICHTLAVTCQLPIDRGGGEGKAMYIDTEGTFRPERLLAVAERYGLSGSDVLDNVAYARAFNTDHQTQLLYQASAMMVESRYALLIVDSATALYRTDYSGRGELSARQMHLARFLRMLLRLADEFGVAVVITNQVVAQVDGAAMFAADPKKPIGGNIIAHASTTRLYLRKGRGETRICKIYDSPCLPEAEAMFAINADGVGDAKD

Assays:
Myc-S96A-STN1 (human) = molecular target: T1, Myc-S96A-STN1 (human) (UniProt Q9H668); assay: co-IP; HEK293T co-transfected with Flag-CTC1, HA-TEN1 and Myc-WT-STN1 or Myc-S96A, HU for 3 h (4 mM in the methods, 2 mM in the legend); anti-Myc antibody overnight at 4 °C, protein G agarose; lysis buffer 0.1% NP-40, 50 mM Tris-HCl pH 7.4, 50 mM NaCl, 2 mM DTT; western blot
T1 sequence: B1 chain

[1] = molecular target: T2, Myc-tagged WT-STN1 (human) (UniProt Q9H668); assay: as above
T2 sequence: B1 chain with A96S

[2] = molecular target: T3, Flag-CTC1 (co-expressed in Expi293F) (human) (UniProt Q2NKJ3); assay: co-purification (Ni-NTA, anti-Flag M2 affinity, size-exclusion chromatography); Flag-CTC1 and STN1-TEN1-His6 plasmids co-transfected into Expi293F; extract through Ni2+ NTA-agarose, anti-Flag M2 and Superdex 200 increase 10/300 GL; SDS-PAGE, Coomassie blue
T3 sequence: B4 chain

[3] = molecular target: T4, TEN1-His6 (co-expressed in Expi293F) (human) (UniProt Q86WV5); assay: as above
T4 sequence: B6 chain

Molecule | binding (Myc-S96A-STN1 (human)) | binding [1] | binding [2] | binding [3]
RAD51 (in HEK293T lysate) (from UniProt Q06609 1-339) | binds | binds |  | 
B1 |  |  | binds | binds
B2 |  |  | binds | binds
B3 |  |  | binds | binds
B4 |  |  |  | binds
B5 | binds | binds |  | 
B6 | binds | binds |  | 
